Three molecules from PMC9371321 can be followed below.

Experiment [1] addresses T1, glutathione-S-transferase-labeled Arc (UniProt Q9WV31).
T1 sequence: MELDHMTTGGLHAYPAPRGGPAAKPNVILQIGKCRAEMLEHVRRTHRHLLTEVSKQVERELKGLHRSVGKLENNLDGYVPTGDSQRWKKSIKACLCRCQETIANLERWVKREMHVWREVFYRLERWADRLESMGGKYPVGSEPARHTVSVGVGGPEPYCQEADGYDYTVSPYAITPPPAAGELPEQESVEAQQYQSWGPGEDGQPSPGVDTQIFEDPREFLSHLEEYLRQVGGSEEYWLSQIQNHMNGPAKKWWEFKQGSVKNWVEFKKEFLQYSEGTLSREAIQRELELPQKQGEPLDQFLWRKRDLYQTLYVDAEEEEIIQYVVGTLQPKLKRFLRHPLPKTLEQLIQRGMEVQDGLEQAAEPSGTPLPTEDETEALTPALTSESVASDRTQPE
As to the kind of experiment: pull-down; GST-Arc or GST alone (10 μM) bound to glutathione resin, incubated overnight with HeLa cell lysate expressing CaMKv-Myc-DDK; eluted with glutathione; blots with anti-DDK and anti-GST; only the target purified.

In the next experiment the target is T2, Arc-mCherry (UniProt Q9WV31).
T2 sequence: T1 sequence
Nature of the experiment: FRET or BRET; FLIM-FRET in living MCF-10A cells at room temperature, 20-24 h after transfection; donor CaMKv-EGFP (two-photon excitation at 880 nm), acceptor Arc-mCherry; phasor plots of donor lifetime. (In general: In BRET a luciferase serves as donor, and the signal depends on an acceptor being close.)

Substitutions are numbered along the chain they refer to. Numbers in names are those of the source. Results are given in words; binding and its absence hold for the method and conditions named. In cells and extracts the contact can be indirect. Some entries that bind do so weakly or less than the wild type. Tags and fused reporters may be left off the sequences shown.

B1: Calmodulin kinase-like vesicle-associated-Myc-DDK (protein, UniProt Q3UHL1 1-512)
chain: MPFGCVTLGDKKNYNQPSEVTDRYDLGQVIKTEEFCEIFRAKDKTTGKLHTCKKFQKRDGRKVRKAAKNEIGILKMVKHPNILQLVDVFVTRKEYFIFLELATGREVFDWILDQGYYSERDTSNVVRQVLEAVAYLHSLKIVHRNLKLENLVYYNRLKNSKIVISDFHLAKLENGLIKEPCGTPEYLAPEVVGRQRYGRPVDCWAIGVIMYILLSGNPPFYEEVEEDDYENHDKNLFRKILAGDYEFDSPYWDDISQAAKDLVTRLMEVEQDQRITAEEAISHEWISGNAASDKNIKDGVCAQIEKNFARAKWKKAVRVTTLMKRLRAPEQSGTAATQSASDAATPGAAGGAIAAAAAAAAAGGAASASGASATAATEGGAGCAAKSDDIASADRSATPATDGSATPATDGSVTPATDGSITPATDGSVTPATDRSATPATDGRATPATEESTVPATQSSALPAAKAAATPEPAVAQPDSTALEGATGQAPPSSKGEEATGCAQESQRVETS
modifications: palmitoylation of Cys5 (approximately 7% of input palmitoylated in HeLa cells)
For the molecule B1, the binding result in experiment [1] is reported as “binds”.

B2: wild-type CaMKv-EGFP (protein, UniProt Q3UHL1 1-512)
chain: B1 chain
B2: the binding entry with Arc-mCherry was “binds”.

B3: C5S-CaMKv-EGFP (protein, UniProt Q3UHL1 1-512)
chain: B1 chain with C5S
Turning to B3, in the experiment with Arc-mCherry, the binding entry was “binds”.
